Laboratory results as given in patent publication US8044098B2, “Use of hydroxybenzoic acids and their esters and analogues for preventing or treating virus infection” (Shenghua Guangzhou Pharmaceutical Science & Technology Co., …, priority 2005, dated 2011).
Some results were stated once for a whole list of compounds, not compound by compound.

Format: physicochemical
Details: 10 g in 100 ml micro emulsion pH 6.8, freshly prepared
Protocol: 20 ml 1,2-propylene glycol, 15 ml Tween-80 and 5 ml azone were mixed together and sterile distilled water was added to bring the volume to 100 ml. The pH value of the solution was adjusted to pH 6.8 with NaOH or HCl to obtain a micro emulsion. 10 g propyl gallate and 10 g gallic acid were dissolved in the micro emulsion, respectively, and mixed well. 10 ml of each micro emulsion was added to a capped transparent glass tube. Both solutions were colorless. The absorbance of the two solutions at 400˜500 nm was measured with spectrophotometry and their absorbance was under 0.15. […] Measured by spectrophotometry again, the absorbance of the gallic acid solution was 1.2 and that of the propyl gallate solution was 0.4.

| Compound | absorbance at 400˜500 nm, initial |
| --- | --- |
| CCCOC(=O)c1cc(O)c(O)c(O)c1 [Propyl gallate] | under 0.15 |
| O=C(O)c1cc(O)c(O)c(O)c1 [Gallic acid] | under 0.15 |
